The values below come from article PMC7351999.

Chains of the proteins cited; added tags and fusions are not shown. Lines headed by an entry give the natural chain unless they say otherwise; changes in a name come on top. A line that says so, or that is headed by a name, gives the form on record, which may keep a tag or linker. Residues count along the entry.
human RHOG (amino acids 1–179) (P84095, residues 1-179): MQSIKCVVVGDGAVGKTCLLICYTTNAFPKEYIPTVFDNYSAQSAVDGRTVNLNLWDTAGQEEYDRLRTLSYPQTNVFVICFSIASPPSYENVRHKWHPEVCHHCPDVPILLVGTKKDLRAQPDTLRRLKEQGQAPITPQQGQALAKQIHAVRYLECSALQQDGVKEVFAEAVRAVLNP
RHOG R66A mutant (P84095, form named): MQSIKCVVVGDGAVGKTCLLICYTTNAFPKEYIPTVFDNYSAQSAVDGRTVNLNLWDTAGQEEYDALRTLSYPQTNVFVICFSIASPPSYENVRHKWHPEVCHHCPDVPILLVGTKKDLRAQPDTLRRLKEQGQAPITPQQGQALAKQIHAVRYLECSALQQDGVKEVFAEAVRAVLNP

Substitutions are numbered along the chain they refer to. Names and notes keep the numbering of the source. These are yes or no findings as the source states them, for the method shown.

The target in one experiment is RHOG R66A mutant (human) (UniProt P84095). As to the kind of experiment: ITC; ELMO2^RBD injected into the cell containing GMPPNP-loaded (activated) RHOG; 20 mM Tris-HCl (pH 7.5), 100 mM NaCl, 1 mM DTT; 25 °C; both purified.
Experiment [1] concerns the target human RHOG (amino acids 1–179) (human) (UniProt P84095). The experiment can be described thus: ITC; ELMO2^RBD injected into the cell containing GDP-loaded RHOG; 20 mM Tris-HCl (pH 7.5), 100 mM NaCl, 1 mM DTT; 25 °C; both purified.
Experiment [2] has the same target. As to the kind of experiment: ITC; ELMO2^RBD injected into the cell containing GMPPNP-loaded (activated) RHOG; 20 mM Tris-HCl (pH 7.5), 100 mM NaCl, 1 mM DTT; 25 °C; both purified.

B1: N-terminal RBD domain of murine ELMO2 (amino acids 1–80) (domain or fragment, UniProt Q8BHL5 1-80)
chain: MPPPSDIVKVAIEWPGANAQLLEIDQKRPLASIIKEVCDGWSLPNPEYYTLRYADGPQLYVTEQTRNDIKNGTILQLAVS
With B1, the binding entry with RHOG R66A mutant (human) is reported as “no binding”; in experiment [1], “no binding (condition: RHOG loaded with GDP)”.

B2: ELMO2^RBD K9A mutant (domain or fragment, UniProt Q8BHL5 1-80)
chain: B1 chain with K9A
Consider B2, for which, in experiment [2], the binding result is recorded as “no binding”.
